PubChem BioAssay AID1259265 – Sanger Institute – 2017
The whole screen tested 160 reagents; below is an unselected part. 31 of them (19%) count as active. 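Calls refer to single siRNAs; agreement across several siRNAs per gene and other cell lines is not shown.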 The numbers tell different reagents against one gene apart. Further read-outs or replicates are left out here. Not given: the amount of reagent, the time to read-out.

Assay: 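Retest single siRNAs, four per gene, for boosting anchor drug effects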 (follow-up of hits)
System: SW620 human colorectal cancer cells
Reagent: single siRNA against human genes
Treatment: anchor drug given a day after transfection: BYL719 at 1 µM, cetuximab at 5 µg/ml, trametinib at 10 nM; DMSO alone as the comparison arm
Measured: 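Viability normalised to control pool 2 (non-targeting) and averaged over replicates; synergy score compares combined siRNA and drug effect against each effect alone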
Reading the numbers: synergy score with trametinib: higher = stronger synergy (synthetic lethal) with trametinib; synergy score with BYL719: higher = stronger synergy (synthetic lethal) with BYL719; synergy score with cetuximab: higher = stronger synergy (synthetic lethal) with cetuximab
Rule for the call: 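Synergistic (synthetic lethal) when the synergy score tops 0.10 with trametinib, BYL719 or cetuximab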

Knock-down of PFKFB3 (6-phosphofructo-2-kinase/fructose-2,6-biphosphatase 3) #1 came out at: synergy score with trametinib -0.0614; synergy score with BYL719 = -0.17; synergy score with cetuximab 0.0595; inactive.
Silencing of PFKFB3 (6-phosphofructo-2-kinase/fructose-2,6-biphosphatase 3) #2 came out at: synergy score with trametinib 0.186; synergy score with BYL719 = 0.00853; synergy score with cetuximab 0.021; active.
With knock-down of PFKFB3 (6-phosphofructo-2-kinase/fructose-2,6-biphosphatase 3) #3 the results were synergy score with trametinib -0.109; synergy score with BYL719 = -0.147; synergy score with cetuximab 0.000234; inactive.
PFKFB3 (6-phosphofructo-2-kinase/fructose-2,6-biphosphatase 3) #4 gave synergy score with trametinib 0.0389; synergy score with BYL719 = -0.0992; synergy score with cetuximab -0.129; inactive.
For CDK6 (cyclin dependent kinase 6) #1, the entry reads synergy score with trametinib 0.163; synergy score with BYL719 = -0.152; synergy score with cetuximab 0.0187; active.
Depletion of CDK6 (cyclin dependent kinase 6) #2 came out at: synergy score with trametinib 0.0147; synergy score with BYL719 = -0.17; synergy score with cetuximab -0.0737; inactive.
Depletion of CDK6 (cyclin dependent kinase 6) #3 gave: synergy score with trametinib 0.102; synergy score with BYL719 = -0.281; synergy score with cetuximab -0.122; active.
CDK6 (cyclin dependent kinase 6) #4 gave synergy score with trametinib 0.156; synergy score with BYL719 = -0.169; synergy score with cetuximab -0.0531; active.
IRAK1 (interleukin 1 receptor associated kinase 1) #1 showed synergy score with trametinib 0.304; synergy score with BYL719 = 0.0214; synergy score with cetuximab -0.122; active.
Depletion of IRAK1 (interleukin 1 receptor associated kinase 1) #2 came out at: synergy score with trametinib -0.111; synergy score with BYL719 = -0.0746; synergy score with cetuximab -0.174; inactive.
Knock-down of IRAK1 (interleukin 1 receptor associated kinase 1) #3 resulted in: synergy score with trametinib 0.026; synergy score with BYL719 = 0.0805; synergy score with cetuximab -0.165; inactive.
After knock-down of IRAK1 (interleukin 1 receptor associated kinase 1) #4 the results were synergy score with trametinib -0.249; synergy score with BYL719 = 0.372; synergy score with cetuximab -0.129.
Knock-down of SYK (spleen associated tyrosine kinase) #1 gave: synergy score with trametinib 0.00821; synergy score with BYL719 = 0.00166; synergy score with cetuximab -0.0927; inactive.
Knock-down of SYK (spleen associated tyrosine kinase) #2 came out at: synergy score with trametinib -0.0195; synergy score with BYL719 = -0.2; synergy score with cetuximab -0.0431; inactive.
For SYK (spleen associated tyrosine kinase) #3 the deposit lists synergy score with trametinib 0.122; synergy score with BYL719 = -0.0166; synergy score with cetuximab -0.0627; active.
SYK (spleen associated tyrosine kinase) #4 gave synergy score with trametinib -0.0915; synergy score with BYL719 = -0.0989; synergy score with cetuximab -0.0543; inactive.
KCNH8 (potassium voltage-gated channel subfamily H member 8) #1 showed synergy score with trametinib 0.0181; synergy score with BYL719 = -0.268; synergy score with cetuximab -0.171; inactive.
Silencing of KCNH8 (potassium voltage-gated channel subfamily H member 8) #2 gave: synergy score with trametinib 0.281; synergy score with BYL719 = 0.0744; synergy score with cetuximab 0.00414; active.
Knock-down of KCNH8 (potassium voltage-gated channel subfamily H member 8) #3 resulted in: synergy score with trametinib -0.167; synergy score with BYL719 = -0.302; synergy score with cetuximab -0.122; inactive.
For KCNH8 (potassium voltage-gated channel subfamily H member 8) #4 the deposit lists synergy score with trametinib 0.146; synergy score with BYL719 = -0.0119; synergy score with cetuximab 0.0385; active.

2 entries from above, set out differently.
target | reagent | synergy score with trametinib | synergy score with BYL719 | synergy score with cetuximab | call
KCNH8 (potassium voltage-gated channel subfamily H member 8) | 2 | 0.281 | 0.0744 | 0.00414 | active
KCNH8 (potassium voltage-gated channel subfamily H member 8) | 3 | -0.167 | -0.302 | -0.122 | inactive
